{"source": "PubChem BioAssay AID602196 (INSERM, 2012)", "assay": "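Genes whose knock-down alters cisplatin killing of lung cancer cells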", "system": "human A549 lung cancer cells", "knock-down reagent": "siRNA pair against human genes", "duration": "48 h transfection before cisplatin; time from cisplatin to read-out not stated", "treatment": "cisplatin at a dose killing half of control-siRNA cells; exact dose and duration not given", "measurement": "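Shift in cisplatin death relative to control siRNA, from -50 (all cells die) to +50 (no cells die); siRNAs harmful on their own scored 0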", "scale": "two-siRNA summed score (-2 to +2): higher = both siRNAs protect from cisplatin killing; -2 means both sensitise; mean protection from cisplatin (shift in death): higher = protection from cisplatin killing", "call rule": "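siRNAs harmful alone (LDH or WST-1) get 0; others get +1 for less and -1 for more cisplatin killing; genes are active when the two siRNAs give the same sign, summing to ±2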", "calls": "active = both siRNAs shift cisplatin killing the same way; inactive = no consistent shift, or siRNA harmful alone", "note": "This is a random part of about 23,000 reagents tested. In the full data, 455 (2%) were called active. 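Active includes both protection and sensitisation; some change values fall well beyond the stated -50 to +50 range.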 Not all columns of the deposit are shown. Not stated in the record: the amount of reagent."}
{"gene": "TMPRSS11D (transmembrane serine protease 11D)", "two-siRNA summed score (-2 to +2)": 0, "mean protection from cisplatin (shift in death) (%)": 9.8, "Call": "inactive"}
{"gene": "LOC440490", "two-siRNA summed score (-2 to +2)": 0, "mean protection from cisplatin (shift in death) (%)": -1.5, "Call": "inactive"}
{"gene": "NXNL2 (nucleoredoxin like 2)", "two-siRNA summed score (-2 to +2)": 0, "mean protection from cisplatin (shift in death) (%)": -2, "Call": "inactive"}
{"gene": "ANKRD17 (ankyrin repeat domain 17)", "two-siRNA summed score (-2 to +2)": 0, "mean protection from cisplatin (shift in death) (%)": 13.6, "Call": "inactive"}
{"gene": "CYP2J2 (cytochrome P450 family 2 subfamily J member 2)", "two-siRNA summed score (-2 to +2)": 0, "mean protection from cisplatin (shift in death) (%)": 8.3, "Call": "inactive"}
{"gene": "FLJ43808", "two-siRNA summed score (-2 to +2)": -1, "mean protection from cisplatin (shift in death) (%)": -4.1, "Call": "inactive"}
{"gene": "LOC442050", "two-siRNA summed score (-2 to +2)": 0, "mean protection from cisplatin (shift in death) (%)": 11.5, "Call": "inactive"}
{"gene": "AGR2", "two-siRNA summed score (-2 to +2)": 0, "mean protection from cisplatin (shift in death) (%)": 8.8, "Call": "inactive"}
{"gene": "CXCL9 (C-X-C motif chemokine ligand 9)", "two-siRNA summed score (-2 to +2)": 0, "mean protection from cisplatin (shift in death) (%)": -16.1, "Call": "inactive"}
{"gene": "G6PC1 (glucose-6-phosphatase catalytic subunit 1)", "two-siRNA summed score (-2 to +2)": 0, "mean protection from cisplatin (shift in death) (%)": 8, "Call": "inactive"}
{"gene": "TRIML1 (tripartite motif family like 1)", "two-siRNA summed score (-2 to +2)": 1, "mean protection from cisplatin (shift in death) (%)": 12.8, "Call": "inactive"}
{"gene": "SCARF1 (scavenger receptor class F member 1)", "two-siRNA summed score (-2 to +2)": -1, "mean protection from cisplatin (shift in death) (%)": -7.8, "Call": "inactive"}
{"gene": "EPB42 (erythrocyte membrane protein band 4.2)", "two-siRNA summed score (-2 to +2)": 1, "mean protection from cisplatin (shift in death) (%)": 14.2, "Call": "inactive"}
{"gene": "HTRA3 (HtrA serine peptidase 3)", "two-siRNA summed score (-2 to +2)": 0, "mean protection from cisplatin (shift in death) (%)": 9.1, "Call": "inactive"}
{"gene": "SMPD2 (sphingomyelin phosphodiesterase 2)", "two-siRNA summed score (-2 to +2)": 1, "mean protection from cisplatin (shift in death) (%)": 15, "Call": "inactive"}
{"gene": "METTL25B (methyltransferase like 25B)", "two-siRNA summed score (-2 to +2)": 0, "mean protection from cisplatin (shift in death) (%)": -5.2, "Call": "inactive"}
{"gene": "SIAH3 (siah E3 ubiquitin protein ligase family member 3)", "two-siRNA summed score (-2 to +2)": 1, "mean protection from cisplatin (shift in death) (%)": 14.7, "Call": "inactive"}
{"gene": "KDM6A (lysine demethylase 6A)", "two-siRNA summed score (-2 to +2)": 0, "mean protection from cisplatin (shift in death) (%)": -1.4, "Call": "inactive"}
{"gene": "NDUFV2 (NADH:ubiquinone oxidoreductase core subunit V2)", "two-siRNA summed score (-2 to +2)": -1, "mean protection from cisplatin (shift in death) (%)": -14.1, "Call": "inactive"}
{"gene": "LOC390363", "two-siRNA summed score (-2 to +2)": 1, "mean protection from cisplatin (shift in death) (%)": 6.5, "Call": "inactive"}
{"gene": "C10orf88B (C10orf88B (pseudogene))", "two-siRNA summed score (-2 to +2)": 0, "mean protection from cisplatin (shift in death) (%)": 4.7, "Call": "inactive"}

Entries above whose target name begins with L or l (3):
{"gene": "LOC440490", "two-siRNA summed score (-2 to +2)": 0, "mean protection from cisplatin (shift in death) (%)": -1.5, "Call": "inactive"}
{"gene": "LOC442050", "two-siRNA summed score (-2 to +2)": 0, "mean protection from cisplatin (shift in death) (%)": 11.5, "Call": "inactive"}
{"gene": "LOC390363", "two-siRNA summed score (-2 to +2)": 1, "mean protection from cisplatin (shift in death) (%)": 6.5, "Call": "inactive"}
